From the supplement of paper PMC11732987, “Enantioselective OTUD7B fragment discovery through chemoproteomics screening and high-throughput optimisation” (Communications Chemistry, 2025)
Some of the results follow. The data scatter; read single values as rough.

Chains of the proteins cited; added tags and fusions are not shown. Lines headed by an entry give the natural chain unless they say otherwise; changes in a name come on top. Residues count along the entry.
UniProt Q969G6: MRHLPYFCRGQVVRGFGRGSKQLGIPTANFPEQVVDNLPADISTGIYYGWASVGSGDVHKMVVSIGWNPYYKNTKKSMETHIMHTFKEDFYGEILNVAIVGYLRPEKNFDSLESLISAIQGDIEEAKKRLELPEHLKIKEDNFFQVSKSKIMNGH
UniProt Q5T481: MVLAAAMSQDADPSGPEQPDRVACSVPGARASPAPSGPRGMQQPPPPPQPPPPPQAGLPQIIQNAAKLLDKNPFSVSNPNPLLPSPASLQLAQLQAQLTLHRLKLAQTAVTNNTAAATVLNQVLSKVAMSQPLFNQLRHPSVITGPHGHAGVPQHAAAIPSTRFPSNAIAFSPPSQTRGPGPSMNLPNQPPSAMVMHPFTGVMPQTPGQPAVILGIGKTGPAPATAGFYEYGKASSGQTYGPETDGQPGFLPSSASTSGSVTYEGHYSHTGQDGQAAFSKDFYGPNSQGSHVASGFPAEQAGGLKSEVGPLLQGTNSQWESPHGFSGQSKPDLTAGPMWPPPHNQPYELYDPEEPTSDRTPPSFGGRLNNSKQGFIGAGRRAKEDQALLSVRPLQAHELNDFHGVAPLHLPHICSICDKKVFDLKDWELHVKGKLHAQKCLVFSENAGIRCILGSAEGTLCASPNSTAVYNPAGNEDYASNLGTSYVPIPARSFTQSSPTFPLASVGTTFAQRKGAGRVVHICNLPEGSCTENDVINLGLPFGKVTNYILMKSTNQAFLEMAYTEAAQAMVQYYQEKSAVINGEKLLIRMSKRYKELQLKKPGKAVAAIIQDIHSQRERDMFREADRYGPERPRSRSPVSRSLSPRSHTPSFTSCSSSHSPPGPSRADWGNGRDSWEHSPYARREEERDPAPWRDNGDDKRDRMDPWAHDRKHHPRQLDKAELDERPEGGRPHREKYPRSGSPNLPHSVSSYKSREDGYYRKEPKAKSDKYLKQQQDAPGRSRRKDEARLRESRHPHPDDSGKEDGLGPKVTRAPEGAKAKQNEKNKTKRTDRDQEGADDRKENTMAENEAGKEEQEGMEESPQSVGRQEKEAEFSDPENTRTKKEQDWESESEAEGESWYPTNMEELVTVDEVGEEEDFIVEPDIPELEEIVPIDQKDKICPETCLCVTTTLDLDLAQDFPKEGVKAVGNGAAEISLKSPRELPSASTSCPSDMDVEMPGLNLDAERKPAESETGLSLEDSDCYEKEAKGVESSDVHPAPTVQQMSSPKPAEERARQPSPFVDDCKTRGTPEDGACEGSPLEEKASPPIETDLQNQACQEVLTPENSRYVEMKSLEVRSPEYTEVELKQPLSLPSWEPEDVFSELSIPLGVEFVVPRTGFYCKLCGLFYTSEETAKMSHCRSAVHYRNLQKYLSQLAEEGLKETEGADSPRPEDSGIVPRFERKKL
UniProt Q14699, 195-217: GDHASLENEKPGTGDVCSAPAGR
UniProt O60930: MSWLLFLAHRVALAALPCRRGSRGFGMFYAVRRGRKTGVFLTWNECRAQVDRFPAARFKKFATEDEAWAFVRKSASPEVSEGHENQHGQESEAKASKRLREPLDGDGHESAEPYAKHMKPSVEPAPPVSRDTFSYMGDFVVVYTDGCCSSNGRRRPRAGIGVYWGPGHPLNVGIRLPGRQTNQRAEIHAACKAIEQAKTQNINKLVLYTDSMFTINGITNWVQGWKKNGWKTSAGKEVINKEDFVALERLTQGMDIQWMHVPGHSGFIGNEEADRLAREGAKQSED
UniProt Q8TEU7: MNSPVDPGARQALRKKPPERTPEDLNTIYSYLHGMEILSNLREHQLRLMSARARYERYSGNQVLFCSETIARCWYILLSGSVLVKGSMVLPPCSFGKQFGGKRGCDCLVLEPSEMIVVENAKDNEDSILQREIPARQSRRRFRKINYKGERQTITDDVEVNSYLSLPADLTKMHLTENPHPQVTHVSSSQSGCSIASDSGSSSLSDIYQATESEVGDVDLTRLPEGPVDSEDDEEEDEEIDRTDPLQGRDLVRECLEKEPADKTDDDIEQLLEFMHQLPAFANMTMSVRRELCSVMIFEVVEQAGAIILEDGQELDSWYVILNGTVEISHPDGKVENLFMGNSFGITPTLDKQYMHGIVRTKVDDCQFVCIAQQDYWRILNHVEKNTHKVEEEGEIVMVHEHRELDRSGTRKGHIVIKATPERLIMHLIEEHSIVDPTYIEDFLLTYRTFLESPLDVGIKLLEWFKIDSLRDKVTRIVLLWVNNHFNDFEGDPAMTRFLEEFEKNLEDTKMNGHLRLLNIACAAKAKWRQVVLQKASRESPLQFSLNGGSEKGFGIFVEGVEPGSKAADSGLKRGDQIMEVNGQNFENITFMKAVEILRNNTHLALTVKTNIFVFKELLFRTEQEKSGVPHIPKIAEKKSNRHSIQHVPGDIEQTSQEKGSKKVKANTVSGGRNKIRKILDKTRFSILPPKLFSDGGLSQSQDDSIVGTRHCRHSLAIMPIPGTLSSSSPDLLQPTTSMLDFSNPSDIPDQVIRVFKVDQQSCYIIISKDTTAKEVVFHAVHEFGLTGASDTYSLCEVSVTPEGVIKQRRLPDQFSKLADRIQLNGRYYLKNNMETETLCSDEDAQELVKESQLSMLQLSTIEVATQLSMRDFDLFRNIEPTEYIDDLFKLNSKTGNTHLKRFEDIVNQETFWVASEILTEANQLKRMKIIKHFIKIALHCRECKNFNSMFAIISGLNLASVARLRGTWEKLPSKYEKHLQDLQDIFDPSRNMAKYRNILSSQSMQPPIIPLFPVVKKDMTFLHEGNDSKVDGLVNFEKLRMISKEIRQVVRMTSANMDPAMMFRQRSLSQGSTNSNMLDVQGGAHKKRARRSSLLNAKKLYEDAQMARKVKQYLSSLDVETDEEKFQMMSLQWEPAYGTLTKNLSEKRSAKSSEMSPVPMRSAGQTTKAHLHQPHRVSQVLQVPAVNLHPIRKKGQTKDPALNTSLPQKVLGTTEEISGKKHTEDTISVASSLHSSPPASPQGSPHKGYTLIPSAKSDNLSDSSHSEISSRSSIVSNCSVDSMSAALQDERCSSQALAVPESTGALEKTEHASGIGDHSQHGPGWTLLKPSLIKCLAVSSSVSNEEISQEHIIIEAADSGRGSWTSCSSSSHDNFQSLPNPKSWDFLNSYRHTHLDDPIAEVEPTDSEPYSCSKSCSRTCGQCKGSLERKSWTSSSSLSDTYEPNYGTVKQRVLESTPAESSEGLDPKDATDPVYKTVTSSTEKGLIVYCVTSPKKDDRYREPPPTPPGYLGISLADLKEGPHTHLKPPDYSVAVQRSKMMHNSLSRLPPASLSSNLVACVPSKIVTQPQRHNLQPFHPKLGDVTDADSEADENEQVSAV
UniProt P35250, whole entry, looked up: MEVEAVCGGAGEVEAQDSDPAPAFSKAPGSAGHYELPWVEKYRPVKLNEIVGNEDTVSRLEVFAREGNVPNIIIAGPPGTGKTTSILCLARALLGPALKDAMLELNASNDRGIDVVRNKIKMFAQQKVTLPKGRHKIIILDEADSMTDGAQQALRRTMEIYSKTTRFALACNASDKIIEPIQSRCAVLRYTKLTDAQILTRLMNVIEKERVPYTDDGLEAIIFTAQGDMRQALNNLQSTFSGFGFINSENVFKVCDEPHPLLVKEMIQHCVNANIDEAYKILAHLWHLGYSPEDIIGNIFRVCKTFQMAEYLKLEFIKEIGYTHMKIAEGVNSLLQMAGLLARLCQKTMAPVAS
UniProt Q5UIP0: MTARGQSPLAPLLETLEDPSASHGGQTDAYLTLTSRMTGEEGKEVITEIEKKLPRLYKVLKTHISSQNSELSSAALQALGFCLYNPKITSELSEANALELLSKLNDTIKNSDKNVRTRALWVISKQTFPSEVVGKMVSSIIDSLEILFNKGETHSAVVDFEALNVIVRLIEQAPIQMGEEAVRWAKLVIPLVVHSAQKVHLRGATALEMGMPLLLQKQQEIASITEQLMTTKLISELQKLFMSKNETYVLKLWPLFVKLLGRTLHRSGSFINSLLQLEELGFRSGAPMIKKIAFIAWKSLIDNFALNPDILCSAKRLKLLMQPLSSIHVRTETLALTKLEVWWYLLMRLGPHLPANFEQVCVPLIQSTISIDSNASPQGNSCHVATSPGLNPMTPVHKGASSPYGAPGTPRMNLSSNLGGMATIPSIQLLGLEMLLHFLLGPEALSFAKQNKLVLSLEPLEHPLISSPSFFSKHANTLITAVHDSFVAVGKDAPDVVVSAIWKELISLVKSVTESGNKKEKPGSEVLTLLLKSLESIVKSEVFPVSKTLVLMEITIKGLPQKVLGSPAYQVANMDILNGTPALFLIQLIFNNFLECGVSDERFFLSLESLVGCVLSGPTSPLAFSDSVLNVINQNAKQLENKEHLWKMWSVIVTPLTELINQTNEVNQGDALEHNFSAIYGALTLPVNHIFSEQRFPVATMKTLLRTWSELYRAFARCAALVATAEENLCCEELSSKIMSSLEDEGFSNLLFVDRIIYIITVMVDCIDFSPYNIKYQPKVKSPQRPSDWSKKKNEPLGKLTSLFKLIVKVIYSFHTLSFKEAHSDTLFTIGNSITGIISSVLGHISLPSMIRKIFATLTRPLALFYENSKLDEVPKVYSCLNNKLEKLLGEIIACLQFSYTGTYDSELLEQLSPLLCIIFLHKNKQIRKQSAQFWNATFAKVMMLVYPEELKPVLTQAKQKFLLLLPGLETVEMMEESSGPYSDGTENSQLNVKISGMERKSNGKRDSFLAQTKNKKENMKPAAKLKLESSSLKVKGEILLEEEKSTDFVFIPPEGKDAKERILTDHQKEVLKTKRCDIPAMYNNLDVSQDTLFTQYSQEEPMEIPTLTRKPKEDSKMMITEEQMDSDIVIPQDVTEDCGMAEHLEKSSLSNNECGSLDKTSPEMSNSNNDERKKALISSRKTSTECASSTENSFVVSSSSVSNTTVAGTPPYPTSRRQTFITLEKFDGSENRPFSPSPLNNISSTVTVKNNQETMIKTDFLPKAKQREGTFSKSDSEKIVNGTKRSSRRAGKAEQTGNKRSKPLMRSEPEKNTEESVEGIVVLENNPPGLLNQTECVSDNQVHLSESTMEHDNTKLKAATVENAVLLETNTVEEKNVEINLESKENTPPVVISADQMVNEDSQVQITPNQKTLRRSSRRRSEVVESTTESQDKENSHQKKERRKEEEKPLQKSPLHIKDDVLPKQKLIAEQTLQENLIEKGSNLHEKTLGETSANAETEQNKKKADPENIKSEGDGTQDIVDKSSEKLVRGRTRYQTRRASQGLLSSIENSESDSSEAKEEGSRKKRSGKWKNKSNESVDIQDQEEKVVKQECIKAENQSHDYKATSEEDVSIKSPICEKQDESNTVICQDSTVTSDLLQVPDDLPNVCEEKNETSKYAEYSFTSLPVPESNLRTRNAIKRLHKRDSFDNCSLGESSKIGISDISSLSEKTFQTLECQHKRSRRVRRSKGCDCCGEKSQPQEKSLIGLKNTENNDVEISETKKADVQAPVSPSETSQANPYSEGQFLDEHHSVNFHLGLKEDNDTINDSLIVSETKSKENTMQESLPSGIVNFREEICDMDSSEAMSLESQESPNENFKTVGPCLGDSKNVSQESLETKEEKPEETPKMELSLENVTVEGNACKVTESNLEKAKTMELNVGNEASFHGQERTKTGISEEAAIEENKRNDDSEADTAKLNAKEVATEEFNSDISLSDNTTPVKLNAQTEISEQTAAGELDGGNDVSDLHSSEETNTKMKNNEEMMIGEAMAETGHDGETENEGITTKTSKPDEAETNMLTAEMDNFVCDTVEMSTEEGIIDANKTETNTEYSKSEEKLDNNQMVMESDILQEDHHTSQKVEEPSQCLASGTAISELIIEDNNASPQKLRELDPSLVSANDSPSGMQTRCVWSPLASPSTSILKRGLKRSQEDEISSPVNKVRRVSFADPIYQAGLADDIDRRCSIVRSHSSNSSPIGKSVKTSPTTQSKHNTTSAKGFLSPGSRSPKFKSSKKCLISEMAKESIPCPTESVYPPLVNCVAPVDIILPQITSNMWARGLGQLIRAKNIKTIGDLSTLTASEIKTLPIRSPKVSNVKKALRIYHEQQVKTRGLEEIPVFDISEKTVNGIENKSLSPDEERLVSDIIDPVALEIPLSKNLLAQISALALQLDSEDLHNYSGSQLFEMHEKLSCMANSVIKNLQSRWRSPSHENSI

Assays:
[1] = compound: ClCC(=O)N[C@@H]1CCCc2ccccc12; assay: log2 mean competition ratio of IA-DTB cysteine labelling (DMSO/compound) (log2 ratio); higher = stronger cysteine engagement by compound; settings: treatment time: 4 h, cell line lysate: HEK293T
Experimental: (§1)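 IA-DTB competitive cysteine chemoproteomics in HEK293T RIPA lysate. Lysates were treated with compound 29 or 30 at 50 or 200 µM for 4 h, then IA-DTB (500 µM, 1 h), trypsin-digested, NeutrAvidin-enriched and analysed by diaPASEF. Competition ratio = intensity DMSO / intensity compound (n=4 treated, n=64 DMSO); binding: mean log2 CR ≥ 1 and p ≤ 0.05 plus QC filters. Target is the cysteine site.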

[2] = compound: ClCC(=O)N[C@H]1CCCc2ccccc12; assay: as above; settings: treatment time: 4 h, cell line lysate: HEK293T
Experimental: as §1

Target	log2 mean competition ratio ([1]; 50 µM)	log2 mean competition ratio ([1]; 200 µM)	log2 mean competition ratio ([2]; 50 µM)	log2 mean competition ratio ([2]; 200 µM)
RFK C8 (UniProt Q969G6)	0.156	-0.0594	0.207	-0.195
RBM33 C285 (UniProt Q96EV2)	0.126	-0.656	0.188	-0.509
RBM20 C24 (UniProt Q5T481)	0.038	0.147	-0.0397	0.11
RFTN1 C211 (UniProt Q14699)	0.00873	-0.221	0.0136	-0.366
RNASEH1 C46 (UniProt O60930)	0.0423	0.164	-0.0903	-0.0589
RAPGEF6 C93 (UniProt Q8TEU7)	-0.0954	0.346	0.271	0.0398
RFC2 C171 (UniProt P35250)	0.00901	-0.051	0.00374	0.0412
RIF1 C1865 (UniProt Q5UIP0)	-0.11	0.0334	0.107	0.225

Limited to log2 mean competition ratio ([1]; 200 µM), for some of the entries so far:
Target | log2 mean competition ratio ([1]; 200 µM)
RFTN1 C211 (UniProt Q14699) | -0.221
RNASEH1 C46 (UniProt O60930) | 0.164
